Reference: PubChem BioAssay AID652259 (Drosophila RNAi Screening Center, 2013)

- Aim: 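Genome-wide hunt for genes that control Wingless pathway activity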 (primary screen)
- Cells: Drosophila clone 8 imaginal disc epithelial cells
- Reagents: long dsRNA against Drosophila genes
- Challenge: pathway stimulated by co-transfected Wingless expression plasmid
- Detection: 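Dual luciferase reads per well after Wingless plasmid stimulation: reporter firefly light and Renilla control light; activity is firefly divided by Renilla, a ratio not deposited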
- Direction: firefly reporter light: higher = more Wg reporter light, before normalisation; Renilla control light: higher = more transfected or surviving cells
- Rule for the call: 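Strong candidates differ from their plate mean by at least two out of four per-plate statistical tests; weak candidates meet just one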
- Calls: active = candidate regulator (raises or lowers reporter); inactive = not a candidate
The deposit covers about 22,000 reagents; shown is an unselected part of those with a known target gene and a result. Over the whole deposit, 233 (1.1%) are marked active. 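Light values are raw, unnormalised plate reads; the ratio scores behind the reporter calls were not deposited.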 Entries without a mark were called inactive. Reagents against one gene are numbered here. Reagent sequences are not shown. Not stated in the record: the amount of reagent, the time to read-out, the dose of the treatment.

no.	Gene	dsRNA no.	reporter change call, replicate 1	firefly reporter light, replicate 1	firefly reporter light, replicate 2	Renilla control light, replicate 1	Renilla control light, replicate 2
1	Gr36a (GeneID 117488)	1		4.99e5	4.83e5	2.21e5	2.10e5
2	Gmd (GeneID 33716)	1		8381		3956	
3	CG40378 (retired record) (GeneID 3355048)	1		7.06e5	7.32e5	3.03e5	3.02e5
4	CG13784 (GeneID 34003)	1		21378		11273	
5	CG13784 (GeneID 34003)	2		6257		3161	
6	eIF4G2 (GeneID 42819)	1		5111	7908	2387	2484
7	eIF4G2 (GeneID 42819)	2		3.59e5	4.08e5	88233	89502
8	CG7016 (GeneID 42968)	1		21976		21031	
9	Tango5 (GeneID 326232)	1		2677	6791	1050	2309
10	Lpt (GeneID 37795)	1		2471	6101	1037	3353
11	Lpt (GeneID 37795)	2		5987		2328	
12	CG34324 (GeneID 32302)	1		26780		11899	
13	Sp7 (GeneID 40918)	1		17552		4192	
14	l(2)k05819 (GeneID 33644)	1		13749		4732	
15	Gclc (GeneID 53581)	1		17465		9413	
16	Ids (GeneID 38423)	1		7868		4055	
17	CG42232 (GeneID 7354465)	1		2664	3656	784	1328
18	CG42232 (GeneID 7354465)	2		3405	5521	1477	2311
19	CG1640 (GeneID 32292)	1		3482	9609	893	2704
20	COX4L (GeneID 35491)	1		1688	7443	608	2740
21	Nep3 (GeneID 33005)	1		20877		9014	
22	Src64B (GeneID 48973)	1		1208	7360	1081	2951
23	CG8745 (GeneID 39530)	1	Wg reporter activity lowered	4853		1300	
24	CG8745 (GeneID 39530)	2		9393		4061	
25	CG8745 (GeneID 39530)	3		5.40e5	5.54e5	1.86e5	1.31e5
26	CG15201 (GeneID 32053)	1		25059		9888	
27	l(3)05822 (GeneID 47260)	1		4232	7533	1324	2505
28	scrt (GeneID 38469)	1		4204		739	
29	jtb (GeneID 36838)	1		4530		1872	

No new results follow: 2 of the entries above.
no.	Gene	dsRNA no.	reporter change call, replicate 1	firefly reporter light, replicate 1	firefly reporter light, replicate 2	Renilla control light, replicate 1	Renilla control light, replicate 2
10	Lpt (GeneID 37795)	1		2471	6101	1037	3353
11	Lpt (GeneID 37795)	2		5987		2328	
